Paper PMC10810282
Results are given in words; binding and its absence hold for the method and conditions named. In cells and extracts the contact can be indirect. Some results given as binding are weak or reduced against the parent protein; the word gives no strength.

Sequences of proteins named here, by UniProt entry; tags and fusion partners are left off. A change or cut given only in a name is not applied to a line headed by its entry. A line that says so, or that is headed by a name, gives the form on record, which may keep a tag or linker.
UniProt P97931: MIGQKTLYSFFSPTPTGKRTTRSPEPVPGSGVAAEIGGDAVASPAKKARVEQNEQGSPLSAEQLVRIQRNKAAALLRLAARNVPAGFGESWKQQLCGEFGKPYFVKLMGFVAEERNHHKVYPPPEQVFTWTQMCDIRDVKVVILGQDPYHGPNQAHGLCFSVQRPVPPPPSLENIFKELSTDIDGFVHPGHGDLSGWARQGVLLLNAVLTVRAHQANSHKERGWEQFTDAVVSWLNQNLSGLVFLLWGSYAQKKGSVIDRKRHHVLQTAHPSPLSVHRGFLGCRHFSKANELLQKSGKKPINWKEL
mUNG2-CFP or mUNG2-YFP Helix-mut_1, expressed in U2OS cells (P97931, form named): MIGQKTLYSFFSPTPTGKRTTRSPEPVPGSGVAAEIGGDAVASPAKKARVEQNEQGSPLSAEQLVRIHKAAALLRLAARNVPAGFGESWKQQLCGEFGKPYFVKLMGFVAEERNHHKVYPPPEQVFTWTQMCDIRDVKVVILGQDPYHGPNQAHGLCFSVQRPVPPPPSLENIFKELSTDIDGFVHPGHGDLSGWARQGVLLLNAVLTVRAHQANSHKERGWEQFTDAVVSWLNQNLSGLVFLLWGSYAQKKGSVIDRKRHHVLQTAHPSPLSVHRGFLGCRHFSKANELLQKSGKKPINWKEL
UniProt P12004: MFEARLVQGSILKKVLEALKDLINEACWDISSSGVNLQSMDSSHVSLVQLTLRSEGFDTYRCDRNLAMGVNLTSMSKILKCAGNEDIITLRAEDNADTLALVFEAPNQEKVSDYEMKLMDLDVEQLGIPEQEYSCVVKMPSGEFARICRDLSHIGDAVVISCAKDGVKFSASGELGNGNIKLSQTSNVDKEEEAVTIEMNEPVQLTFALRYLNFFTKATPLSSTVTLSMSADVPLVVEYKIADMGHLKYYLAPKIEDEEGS

Tests used:
[1] = target: mUNG2-CFP or mUNG2-YFP Helix-mut_1, expressed in U2OS cells (mouse) (UniProt P97931); test: co-IP; polyclonal GFP antibody coupled to Protein A Dynabeads, nuclease (RNaseA + OmniCleave) treated whole cell extract of transfected U2OS cells expressing tagged UNG2 variants, 4°C overnight; blot for PCNA
[2] = target: mUNG2-CFP or mUNG2-YFP wild type, expressed in U2OS cells (mouse) (UniProt P97931); test: as above

PCNA of U2OS cell extract (from UniProt P12004 1-261)
binding [1]: binds
binding [2]: binds
